These are yes or no findings as the source states them, for the method shown.
Legend:
[1] = target: Recombinant His Tag SARS-CoV-2 Envelope protein (SARS-CoV-2) (UniProt P0DTC4); test: ELISA
[2] = target: Recombinant human Mannose Binding Lectin (MBL) (human) (UniProt P11226); test: capture of pseudotyped lentivirus on coated plates, p24 ELISA after lysis

The chains behind the UniProt entries cited, without tags or fusion partners. Residues count along the entry.
UniProt P0DTC4: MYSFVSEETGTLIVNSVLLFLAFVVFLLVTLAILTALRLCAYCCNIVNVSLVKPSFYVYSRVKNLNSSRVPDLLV
UniProt P11226, residues 21-248: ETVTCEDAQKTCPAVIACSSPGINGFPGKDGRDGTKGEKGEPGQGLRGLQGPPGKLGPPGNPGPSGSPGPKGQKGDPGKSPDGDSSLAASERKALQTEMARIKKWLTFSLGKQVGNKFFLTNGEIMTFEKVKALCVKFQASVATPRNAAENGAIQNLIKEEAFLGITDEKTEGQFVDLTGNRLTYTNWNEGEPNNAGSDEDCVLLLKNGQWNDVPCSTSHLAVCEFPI
UniProt P02743, residues 20-223: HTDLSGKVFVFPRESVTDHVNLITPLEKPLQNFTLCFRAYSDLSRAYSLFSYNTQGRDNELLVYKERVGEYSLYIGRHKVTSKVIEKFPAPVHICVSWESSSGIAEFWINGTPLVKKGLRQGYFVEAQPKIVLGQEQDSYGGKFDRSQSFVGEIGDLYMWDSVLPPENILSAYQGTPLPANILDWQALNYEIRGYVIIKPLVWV
UniProt P03522, residues 17-511: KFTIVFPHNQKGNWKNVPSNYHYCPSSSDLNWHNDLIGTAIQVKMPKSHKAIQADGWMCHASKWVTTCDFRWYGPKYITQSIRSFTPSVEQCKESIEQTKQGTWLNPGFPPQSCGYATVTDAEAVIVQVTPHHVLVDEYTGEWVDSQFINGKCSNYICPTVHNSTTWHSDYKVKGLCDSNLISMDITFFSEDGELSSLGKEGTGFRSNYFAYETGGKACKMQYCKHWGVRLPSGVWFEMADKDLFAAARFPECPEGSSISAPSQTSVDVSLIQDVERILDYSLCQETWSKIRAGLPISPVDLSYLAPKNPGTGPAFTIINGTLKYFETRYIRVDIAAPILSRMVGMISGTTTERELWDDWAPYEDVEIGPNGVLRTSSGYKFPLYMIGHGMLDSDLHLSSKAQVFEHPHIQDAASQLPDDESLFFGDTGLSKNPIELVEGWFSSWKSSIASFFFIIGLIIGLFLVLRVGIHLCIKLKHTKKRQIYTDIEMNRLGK

Molecule	binding [1]	binding [2]
Serum amyloid P component (SAP), purified (from UniProt P02743 20-223)	no binding (tested: SAP 4 µg/mL (32 nM))	
VSV-g glycoprotein pseudotyped on a lentivirus vector (from UniProt P03522 17-511)		no binding (tested: 1 µg/mL)
C-reactive protein (CRP), purified (protein, UniProt P02741 19-224) QTDMSRKAFVFPKESDTSYVSLKAPLTKPLKAFTVCLHFYTELSSTRGYSIFSYATKRQDNEILIFWSKDIGYSFTVGGSEILFEVPEVTVAPVHICTSWESASGIVEFWVDGKPRVRKSLKKGYTVGAEASIILGQEQDSFGGNFEGSQSLVGDIGNVNMWDFVLSPDEINTIYLGGPFSPNVLNWRALKYEVQGEVFTKPQLWP	no binding (tested: CRP 3 µg/mL (25 nM))	
